Test results taken from patent US20040248207A1 (UNIVERSITY COLLEGE LONDON, published 2004).
No constants are given. Whether binding was seen depends on the method and setting. Binding seen in cells or lysates may run through a third protein. Some results given as binding are weak or reduced against the parent protein; the word gives no strength. Where a sequence is shown, tags or fusion partners need not be part of it.

Chains of the proteins cited; added tags and fusions are not shown. Lines headed by an entry give the natural chain unless they say otherwise; changes in a name come on top.
UniProt P05943: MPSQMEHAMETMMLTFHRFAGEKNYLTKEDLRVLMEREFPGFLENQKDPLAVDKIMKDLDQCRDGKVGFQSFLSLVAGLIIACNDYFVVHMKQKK

Molecular target: GFP-p11 fusion protein (rat) (UniProt P05943)
Experiment: GST pull-down on glutathione-sepharose beads, anti-GFP immunoblot

**Q.** How did the binding turn out when LVGEPLEDLDPFYSTHRTFMVLNKSRTISR (peptide, not shown: a dimerising Fc or GST) [GST-N3-2] was run?
**A.** binds
